# Results from PubChem BioAssay AID1347076 (National Center for Advancing Translational Sciences (NCATS), 2019).
# About 13,000 (3.2%) of roughly 400,000 compounds were called active. Inconclusive results, whose numbers are uncertain, are shown with a selection of clear calls. Calls come from the whole dose curve; as a rule, active = well fitted cell-killing curve with a large enough effect; inconclusive = small, poorly fitted or top-dose-only effect, or effect the other way; inactive = flat fitted curve, though single readings scatter. A potency beside an inconclusive call is a rough fit, not a confirmed value. Where a SMILES comes first, the peptide text is derived from it. The star is where a group is joined. Boc = CC(C)(C)OC(=O)*; Bn = c1ccc(C*)cc1
# Assay: qHTS assay for MDR1-selective chemotherapeutics: Primary screen using the drug-selected MDR subline cells KB-V1; note: nearly all actives have a fitted effect of over 60% in size
# Settings: KB-V1 MDR cells viability, CellTiter-Glo, 72 h; activity change, negative = cytotoxicity: at 46.1 µM (top of the series)
# In short: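 Cells of the MDR subline KB-V1 are plated, dosed with compound at multiple concentrations, and incubated 72 h at 37 degrees C; CellTiter-Glo is then added and luminescence read after 10 min.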
# % is set by controls: 0 for no effect and ±100 for the full control effect; potency is the fitted concentration of half-maximal effect.
SMILES,Potency,"activity change, negative = cytotoxicity"
COc1ccc(N2CCN(Cc3cc(=O)oc4cc(-c5ccccc5)c(O)cc34)CC2)cc1,"inconclusive: 23.1 µM [cytotoxic, single point]",–
Nc1nc(-c2ccco2)nn1C(=O)c1ccc(Cl)cc1,–,inactive: 6.08%
C[C@H](c1ccccc1)N1C[C@@H](COCc2ccccc2)Oc2cc(N3CCC[C@@H]3CO)ccc2S1(=O)=O,"inconclusive: 20.6 µM [cytotoxic, single point]",–
CCOc1cc(C(=O)N2CC(=O)Nc3ccc(F)cc3C2c2ccccc2)cc(OCC)c1OCC (configuration not stated),–,inactive: 15.6%
O=C(Nc1cccc(NC(=O)c2ccccc2Cl)c1)c1ccc([N+](=O)[O-])o1,"inconclusive: 3.66 µM [cytotoxic, partial curve, poor fit]",–
O=C(NCCCn1ccnc1)/C(=C\c1ccc(Br)cc1)NC(=O)c1ccccc1,–,inactive: 22.2%
COc1ccc(/C(O)=C2/C(=O)C(=O)N(c3nc(C)c(C)s3)C2c2ccco2)cc1 (configuration not stated),"inconclusive: 18.4 µM [cytotoxic, single point]",–
Cc1ccnc(NC(=O)CSc2ccc3c(c2)OCCO3)c1,active: 18.4 µM,–
COc1cc2nc(NCCc3ccc(Cl)cc3)n3nc(-c4ccccc4)nc3c2cc1OC,–,inactive: 21.1%
Clc1ccc(CSc2nnc(Cn3cnc4ccccc43)o2)cc1,"inconclusive: 11.6 µM [cytotoxic, partial curve]",–
COc1ccc(N(CC(=O)N2CCC(Cc3ccccc3)CC2)S(C)(=O)=O)cc1,"inconclusive: 20.6 µM [cytotoxic, single point]",–
CCN(Cc1nc2ccccc2c(=O)[nH]1)C(=O)c1cccc(NC(=O)c2cccs2)c1,–,inactive: -23.7%
COc1ccc(N2CCN(CCCNC(=O)c3sc4ncccc4c3-n3cccc3)CC2)cc1,–,inactive: -3.72%
N#Cc1ccccc1OC1=NS(=O)(=O)c2ccccc21,–,inactive: -13.2%
C/C(=N\NC(=O)c1cc(C)nc2ccc(C)cc12)c1ccncc1,–,inactive: 3.6%
Cc1noc(C)c1C(=O)OCC(=O)NCCc1ccc(S(N)(=O)=O)cc1,–,inconclusive: 13%
Cc1ccc(N/N=C/c2cccnc2)cc1,active: 20.6 µM,–
CCOC(=O)C1=C(N)n2c(s/c(=C\c3ccncc3)c2=O)=C(C(=O)OCC)C1c1ccncc1 (configuration not stated),–,inactive: -13.7%
CC(C)OCCCNC(=O)Cn1c(-c2cccs2)cc2cc(F)ccc21,–,inactive: -20.3%

SMILES,Potency,"activity change, negative = cytotoxicity"
CC(C)CC(NC(=O)C(CC(C)C)NC(=O)C(Cc1ccc(OCc2ccccc2)cc1)NC(=O)OC(C)(C)C)C(N)=O (stereo not drawn) (Boc-Tyr(Bn)-Leu-Leu-NH2; configuration not given here),"inconclusive: 3.66 µM [rising, partial curve]",–
COc1ccc(NC(=O)Cn2nc(C)c3c(C)n(-c4ccccc4)nc3c2=O)cc1OC,"inconclusive: 7.31 µM [rising, partial curve]",–
O=C1CC2(CCN(S(=O)(=O)c3ccccc3F)CC2)Oc2ccccc21,"inconclusive: 23.1 µM [cytotoxic, single point]",–
CC1Cc2ccccc2N1c1ncnc(N)c1[N+](=O)[O-] (configuration not stated),"inconclusive: 25.9 µM [cytotoxic, single point]",–
CCCn1c(SCC(=O)NC2CCCCC2)nnc1C1CC1,–,inactive: -17.8%
CC(=O)Nc1cccc(C(=O)/C=C/c2ccc(Br)cc2)c1,"inconclusive: 29.1 µM [cytotoxic, single point]",–
CC1CCc2c(sc3ncnc(SCC(=O)c4ccccc4)c23)C1 (configuration not stated),–,inactive: -2.78%
Cc1ccc(NC(=O)CN2CCC(C(=O)c3ccc(F)cc3)CC2)cc1,"inconclusive: 23.1 µM [cytotoxic, partial curve, poor fit]",–
CCOc1ccc(NC(=O)c2cccc(OC(=S)N3CCOCC3)c2)cc1,"inconclusive: 20.6 µM [cytotoxic, single point]",–
Cc1nc2ncnn2c(C)c1CCC(=O)N1CCc2ccccc21,"inconclusive: 13 µM [cytotoxic, single point]",–
CCc1ccc(CNC(=O)c2cc3c(C)nc4ccccc4c3o2)cc1,–,inactive: 1.08%
CN1CCN(Cc2c(O)ccc3occ(C(=O)c4ccccc4)c23)CC1,–,inactive: -23.2%
COc1ccc(CC(=O)Nc2cc3oc4ccccc4c3cc2OC)cc1,–,inactive: 2.75%
O=C(CC(=O)N/N=C/c1ccccc1O)NCc1cccnc1,"inconclusive: 25.9 µM [cytotoxic, single point]",–
COc1ccc(/C=C2/SC(=S)N(CCCC(=O)Nc3ccccc3C(=O)O)C2=O)cc1,–,inactive: -17.4%
CCOc1cc(/C=N/NC(=O)C(C)Sc2ccccn2)ccc1O (configuration not stated),–,inactive: 7.96%
Cc1cccc(N=C2NN=C(c3c(C)[nH]c4ccccc34)CS2)c1,"inconclusive: 29.1 µM [cytotoxic, single point]",–
O=C(CCS(=O)(=O)c1ccccc1)Nc1ccccc1N1CCOCC1,"inconclusive: 25.9 µM [cytotoxic, single point]",–

# Retrieved by structure from above:
SMILES,Potency,"activity change, negative = cytotoxicity"
CN1CCN(Cc2c(O)ccc3occ(C(=O)c4ccccc4)c23)CC1,–,inactive: -23.2%
CC(=O)Nc1cccc(C(=O)/C=C/c2ccc(Br)cc2)c1,"inconclusive: 29.1 µM [cytotoxic, single point]",–
